Measurements taken from article PMC12407064.

Molecular target: T1, MycDTX3 (pRK5-3MycDTX3.WT, 1 to 347) (UniProt Q8N9I9)
T1 sequence: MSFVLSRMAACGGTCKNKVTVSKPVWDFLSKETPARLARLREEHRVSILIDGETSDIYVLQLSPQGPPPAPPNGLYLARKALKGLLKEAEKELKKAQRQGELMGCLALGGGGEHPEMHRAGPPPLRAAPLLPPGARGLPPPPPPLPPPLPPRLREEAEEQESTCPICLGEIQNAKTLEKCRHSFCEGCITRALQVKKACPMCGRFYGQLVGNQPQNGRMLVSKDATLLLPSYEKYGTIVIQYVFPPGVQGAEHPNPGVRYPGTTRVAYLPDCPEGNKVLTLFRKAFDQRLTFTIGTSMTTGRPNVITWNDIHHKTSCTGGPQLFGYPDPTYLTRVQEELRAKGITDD
Assay: co-IP; anti-Myc beads, 2 hours at 4°C, lysates of transfected TNKS1/2 DKO HEK293T cells in TNE buffer; immunoblot

FlagDi19-UIM (C-terminal Di19-UIM fragment of RNF166, pCMV3FlagDi19-UIM) (domain or fragment)
binding: binds

These are yes or no findings as the source states them, for the method shown. Binding seen in cells or lysates may run through a third protein. Binding calls can cover weak binding; strength is not graded here. Sequences can lack the tags named with a protein.
